Record: PubChem BioAssay AID1671195 (Yale University, 2021)
Aim: 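Knockdowns that increase or decrease uptake of fluorescent LDL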 (primary screen). Cells: human Huh7 hepatoma cells. Reagents: siRNA pool against human genes, 18 nM. Time to read-out: about 2 to 2.5 days of knockdown, then 8 h LDL uptake. Conditions: DiI-labelled LDL at 30 µg/ml for 8 h, in lipoprotein-deficient serum medium. Measurement: 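Fluorescent LDL signal imaged in cells, scaled to the plate median, robust z-score for each replicate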. Scale: robust z-score: higher = more LDL uptake after knockdown. Rule for the call: 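a gene counts as active if at least two replicate z-scores exceed ±2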.
Shown is an unselected part of about 22,000 reagents tested. About 1,510 of all reagents (6.9%) were called active. 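Active includes knockdowns raising or lowering LDL uptake; positive z-scores mean more uptake, negative mean less.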 Entries without a mark were called inactive.

robust z-score, replicate 1	robust z-score, replicate 2	robust z-score, replicate 3	Target gene
-1.99	-0.924	-1.37	CBX2
-0.638	-0.616	-0.192	PRRG3
-0.194	0.434	1.55	DCP2
-0.503	-1.21	-0.0499	ZNF791
1.04	1.09	2.33	FOXN3
-0.00634	0.0265	-0.0874	LOC389767 (retired record)
-0.799	-1.19	-0.994	OR2J3
-2.08 (active)	-2.24	-2.01	SNX27
0.261	0.414	-0.159	BMPER
1.39	0.992	1.15	ARID4A
-0.953	-0.54	-0.619	KRTCAP2
2.82	0.701	1.32	LZTS3
0.000518	1.13	0.849	UBE2QL1
-0.97	-0.978	-1	PTMA
0.00546	-0.931	-0.599	CHMP7
0.58	-0.541	0.125	ATF1
1.46	-0.121	2.04	IRX2-DT
0.371	0.713	0.804	ANKRD62
1.73	1.19	2.24	FBXL16
0.333	-0.263	0.586	ZNF395
0.00948	0.58	0.16	H4C4
2.2 (active)	3.33	1.22	CTTNBP2NL
-1.51	-1.91	-1.46	ALPK2
1.59	2	0.281	IFT27
0.156	0.542	0.569	MATN1
1.72	0.889	0.291	MYH9
-1.04	-0.864	-0.57	AIMP1
1.18	0.785	1.11	KLHL31
0.209	0.453	0.88	OPRK1
0.027	-0.274	0.663	ABHD17C
-0.546	-0.706	-0.856	MTF2
-0.613	-1.04	-0.416	COQ5
1.12	0.587	-0.262	CHCT1
-0.714	-0.961	-0.739	TIGD3
-2.07 (active)	-1.64	-1.97	PTK2
-1.18	-0.853	-0.148	DCUN1D5
-0.367	-0.939	-0.539	LOC402142 (retired record)
1.95	1.32	1.84	RYR1
1.18	0.295	0.931	BECN1
0.0728	-1.1	-0.75	WDR33
1.22	0.598	1.25	TAF3
0.292	0.583	-0.0641	PCDHB13
-1.35	0.75	-1.98	UFL1
-0.172	-0.74	-0.508	SWSAP1
0.435	-0.199	0.543	H3-3B
-0.176	0.281	-0.285	TMEM171
2.36	1.57	1.51	NDUFA1
1.5	0.0323	0.577	AURKC
0.947	0.394	0.00519	SYT9
-2.34 (active)	-2.16	-2.12	BBOX1
0.151	-1.54	-0.677	MRAS
0.176	-0.229	0.434	ZC3H12A
-0.502	-0.751	-0.413	UCP1
-1.14	-0.552	-0.645	OTOP1
-0.0663	-0.628	-0.63	LINC00470
-0.677	-0.931	-0.125	LOC442265 (retired record)
-1.49	-1.52	-1.36	LOC389089 (retired record)
0.513	0.373	0.875	LOC402011 (retired record)
-0.388	0.34	0.582	SPTSSB
0.128	0.565	0.354	GLYATL3
-1.22	-0.0691	-0.449	CDC5L
-0.17	-0.157	-1.48	MROH2B
-1.64	-1.23	-3.1	MRPL37
-1.61	-1.06	-1.17	C1orf35
1.34	1.73	1.49	TMEM98
1.13	-1.58	-0.153	LSG1
-0.707	-0.754	-0.486	CHAT
-0.595	-0.994	-1.11	ZIK1
-0.0794	0.49	0.456	DONSON
0.867	0.16	-0.014	LOC441345 (retired record)
-1.08	-1.18	-0.682	ZNF768
0.542	0.0116	0.139	STX5
0.967	-1.12	-0.885	RNF113A
-0.614	0.574	-0.207	RETREG3
0.43	-0.408	0.0344	KCNIP2
0.83	-0.225	0.134	C1QTNF3
0.275	1.3	1.55	TRUB1
0.381	-0.343	0.464	FAXC
-0.489	-1.06	-1.02	SLX9
1.91 (active)	1.9	2.56	RPL7P6
-1.09	-1.43	-1.4	LOC441375 (retired record)
-0.596	-0.8	0.209	NKX6-1
-0.524	-0.453	-0.416	KPNA2P1
0.581 (active)	3.88	1.78	HCAR2
0.272	0.694	0.328	TMCC2
0.253	-0.334	-0.816	ITCH
0.0512	0.919	0.127	NRAP

Just “robust z-score, replicate 1” (9 entries from above):
MRAS: 0.151
ZC3H12A: 0.176
UCP1: -0.502
OTOP1: -1.14
LINC00470: -0.0663
LOC442265 (retired record): -0.677
LOC389089 (retired record): -1.49
LOC402011 (retired record): 0.513
SPTSSB: -0.388
